This note sets out measurements from publication PMC11123394.

The chains behind the UniProt entries cited, without tags or fusion partners. Where a name states a change or a piece, a line headed by the entry shows the natural chain unless it says otherwise.
UniProt Q7Y0Y8: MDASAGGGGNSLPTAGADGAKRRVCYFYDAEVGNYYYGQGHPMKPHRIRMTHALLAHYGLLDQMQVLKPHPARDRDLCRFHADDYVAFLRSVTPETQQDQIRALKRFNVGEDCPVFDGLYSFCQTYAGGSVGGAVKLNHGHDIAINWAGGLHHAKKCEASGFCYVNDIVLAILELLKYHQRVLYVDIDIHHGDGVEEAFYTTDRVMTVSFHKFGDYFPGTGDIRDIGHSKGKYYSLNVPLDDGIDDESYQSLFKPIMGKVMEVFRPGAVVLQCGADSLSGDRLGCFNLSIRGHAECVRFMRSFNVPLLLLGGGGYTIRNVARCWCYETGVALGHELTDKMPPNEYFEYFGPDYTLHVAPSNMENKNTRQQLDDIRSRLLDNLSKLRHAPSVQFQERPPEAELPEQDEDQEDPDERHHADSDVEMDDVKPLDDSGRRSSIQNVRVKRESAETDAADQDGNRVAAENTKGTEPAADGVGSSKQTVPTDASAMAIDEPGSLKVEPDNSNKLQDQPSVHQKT
UniProt Q6F368: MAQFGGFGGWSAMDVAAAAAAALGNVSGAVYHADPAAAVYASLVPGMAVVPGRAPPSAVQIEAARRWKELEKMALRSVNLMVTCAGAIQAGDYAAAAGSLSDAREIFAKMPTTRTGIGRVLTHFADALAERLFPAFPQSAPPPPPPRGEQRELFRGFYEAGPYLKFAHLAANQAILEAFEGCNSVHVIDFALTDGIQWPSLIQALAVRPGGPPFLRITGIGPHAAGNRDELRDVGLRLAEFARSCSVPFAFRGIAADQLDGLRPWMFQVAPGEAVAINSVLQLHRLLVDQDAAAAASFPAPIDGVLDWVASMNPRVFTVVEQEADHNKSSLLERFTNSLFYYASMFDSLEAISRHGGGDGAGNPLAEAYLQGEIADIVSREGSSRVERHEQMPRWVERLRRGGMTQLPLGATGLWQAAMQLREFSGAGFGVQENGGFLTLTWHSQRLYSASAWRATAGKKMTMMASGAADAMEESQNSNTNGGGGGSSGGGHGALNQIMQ

The assay has as its target GST-OsHDAC1 (rice (Oryza sativa)) (UniProt Q7Y0Y8). Put plainly: pull-down; glutathione resin with GST or GST-OsHDAC1 incubated with MBP-OsGRAS30-His in phosphate-buffered saline, 4 °C, 2 h; detection with anti-His; both purified.

No constants are given. Whether binding was seen depends on the method and setting. Binding can be weak; no strength is given.

On to MBP-OsGRAS30-His (from UniProt Q6F368), for which the binding result was “binds”.
